# Measured values as given in paper PMC7819943, “Rice protein-binding microarrays: a tool to detect cis-acting elements near promoter regions in rice”.
# The other results are listed elsewhere or left out.
# Molecular target: T1, OsSMF1 (Oryza sativa, UniProt Q6ZLB0 1-436)
# T1 sequence: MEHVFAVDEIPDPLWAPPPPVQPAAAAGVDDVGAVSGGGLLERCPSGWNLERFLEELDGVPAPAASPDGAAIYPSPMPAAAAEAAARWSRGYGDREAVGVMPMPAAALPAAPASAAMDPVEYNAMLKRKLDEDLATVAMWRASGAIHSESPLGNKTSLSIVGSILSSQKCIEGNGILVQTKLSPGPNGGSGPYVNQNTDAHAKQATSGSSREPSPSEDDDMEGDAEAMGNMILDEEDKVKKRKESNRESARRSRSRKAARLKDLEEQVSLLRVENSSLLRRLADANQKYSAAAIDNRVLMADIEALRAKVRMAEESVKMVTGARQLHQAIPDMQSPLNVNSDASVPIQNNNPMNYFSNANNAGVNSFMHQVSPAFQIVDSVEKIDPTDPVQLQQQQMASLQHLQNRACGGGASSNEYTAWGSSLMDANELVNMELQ
# Assay: protein-binding microarray (RPBM); PBS, 2% BSA, 51.3 ng/ul salmon testes DNA, 50 uM zinc acetate, 200 nM TF, 25 C, 1 h; high values mean tight binding
# Conditions: protein: recombinant; tags: N-terminal polyhistidine and DsRed monomer fusion (pET32a); chain copies: 2; label: CyDye5-dUTP incorporated in the synthesized complementary strand; 3' TTTTT single-stranded linker to array surface; dsDNA, one strand shown
# Method in brief: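 A custom Agilent array was converted to double-stranded form by primer extension with Cy5-dUTP and blocked with 2% BSA. Protein at 200 nM in PBS with 2% BSA, salmon testes DNA and 50 µM zinc acetate was applied for 1 h at 25 °C, followed by washing. The proteins were polyhistidine–DsRed N-terminal fusions of transcription factors, expressed in E. coli BL21-CodonPlus and Ni–NTA-purified. The binding signal is per-feature fluorescence intensity (arbitrary units) from an Axon 4000B scanner.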
row,Sequence,binding signal
1,ACAAGGGTCCAAGGCACGCTGAGTCAGACCCACTTGGGCGCGGAGTCACCTAGTGCAG,12500 fluorescence intensity (a.u.)
2,AAACGTAGTCTAATAACAAAACAAATTACAGATTCCGCTTCGGAGTCACCTAGTGCAG,28400 fluorescence intensity (a.u.)
3,CTGCGGCCGAGGTCGCATGACCATGTGGACATCCTCGCGCCGGAGTCACCTAGTGCAG,3460 fluorescence intensity (a.u.)
4,GCTCGCTCCAGTCCACCCACGCACGCACGCACGGCACGTTCGGAGTCACCTAGTGCAG,3600 fluorescence intensity (a.u.)
5,CAACAAGACTTTGGAGATAGGCTAATACGTGTCCTAGTGTCGGAGTCACCTAGTGCAG,5760 fluorescence intensity (a.u.)
6,TGGCGTCCGTGACGACGACGGTGACGACGGGCACGATGGCCGGAGTCACCTAGTGCAG,4230 fluorescence intensity (a.u.)
7,AGTAGCAATTACCCACGTGGCATCCACCGCTGTTGTTTCCCGGAGTCACCTAGTGCAG,15900 fluorescence intensity (a.u.)
8,ATCCATGTGATAAATAACACGTGCGCGAATTAACATTTCTCGGAGTCACCTAGTGCAG,5060 fluorescence intensity (a.u.)
9,AGTTTCACGCACGCACACCGGTCCATTGATTTCTCGCCGCCGGAGTCACCTAGTGCAG,3300 fluorescence intensity (a.u.)
10,ACACCCGTCCGTCCCGTCTCGTTCTGCGCCGTCTCGCCGGCGGAGTCACCTAGTGCAG,18700 fluorescence intensity (a.u.)
11,CTGGTGATTCCATCCAGCCGTCCACATGGTCATCGCTCATCGGAGTCACCTAGTGCAG,3400 fluorescence intensity (a.u.)
12,GTGTTGGTGGCTCTGGCTGCGTCGACGTGCGCAGGGCGTTCGGAGTCACCTAGTGCAG,6130 fluorescence intensity (a.u.)
13,TTGACAACAGGAGATTCTGGTCAATTTTAACTATATTATACGGAGTCACCTAGTGCAG,25800 fluorescence intensity (a.u.)
14,TAGCCAGAGACTATCCCGCCGTATTATTTCGACCAAATTCCGGAGTCACCTAGTGCAG,17200 fluorescence intensity (a.u.)
15,GTCGGCGCCGAAAGGCATAAACCTGTCAGCGTGGCCCGTCCGGAGTCACCTAGTGCAG,3300 fluorescence intensity (a.u.)
16,GCCGCTTTTGCGAATTTTGCACGTAGACCCCTTGCCGCCCCGGAGTCACCTAGTGCAG,3330 fluorescence intensity (a.u.)
17,AGCCCAATGCTATATACGTTGCAAGTTATAAATTTAAAGACGGAGTCACCTAGTGCAG,24800 fluorescence intensity (a.u.)
18,TATGCCAAAGAGAAGCCTCGTCAGCCATCCCTTTGGCCACCGGAGTCACCTAGTGCAG,7800 fluorescence intensity (a.u.)
19,CGCCGCCTCCCTCACTGACGGGTGGGCCCCACATGTCAGGCGGAGTCACCTAGTGCAG,4130 fluorescence intensity (a.u.)
20,AGACATGTGCCACTCTCAGTTCCTAATGTAAGCTTTCCATCGGAGTCACCTAGTGCAG,21300 fluorescence intensity (a.u.)
21,CCTGTTTCCCTAGTATCTTTGATAACCATGCTCACCATATCGGAGTCACCTAGTGCAG,3400 fluorescence intensity (a.u.)

row,Sequence,binding signal
1,TCCCCACGCTCCCCGTCACCAACCACCCTTTTCCCCGGAACGGAGTCACCTAGTGCAG,4880 fluorescence intensity (a.u.)
2,AAATTACTAGGAGAAGCCAACACGTGTCCAGAAGGAAGAACGGAGTCACCTAGTGCAG,3820 fluorescence intensity (a.u.)
3,ATGGTCTCACATGTCATACACATATTCCGTCTTGGAGTTCCGGAGTCACCTAGTGCAG,3240 fluorescence intensity (a.u.)
4,GACGAGGAGCAGGAGGAAGCATTTGAGCGTCGTCACGGTTCGGAGTCACCTAGTGCAG,3200 fluorescence intensity (a.u.)
5,AGCCACCGCCGGCCACATCCCTCGCACGTCTGCGCTCGCCCGGAGTCACCTAGTGCAG,4690 fluorescence intensity (a.u.)
6,ATGTGGGTGTGTGAATGACAAATGGGTCCCACGTATAACTCGGAGTCACCTAGTGCAG,4460 fluorescence intensity (a.u.)
7,AGGTTCGCCTACCGGTTGCTGTTCGAGCGGGAGGTGTCAGCGGAGTCACCTAGTGCAG,3360 fluorescence intensity (a.u.)
8,TGTTGACATGTTGACGATATGTGGCCAGATCGTCTCGACACGGAGTCACCTAGTGCAG,3590 fluorescence intensity (a.u.)
9,GCCACTGTGAGGCGCATAACATGGCTGCGCGCCTCGCTTGCGGAGTCACCTAGTGCAG,3720 fluorescence intensity (a.u.)
10,ACTGAGGCGCGGGGTATTACTGCATCACGCTTCGGCTTCCCGGAGTCACCTAGTGCAG,22800 fluorescence intensity (a.u.)
11,ATATGTTGTCCAAGTCATCGTTGATTTTGAGTTGTGCTGTCGGAGTCACCTAGTGCAG,9580 fluorescence intensity (a.u.)
12,TTGCGATGCTGCTACGGGATAGTGACGGCTGTTTACAATCCGGAGTCACCTAGTGCAG,29600 fluorescence intensity (a.u.)
13,CTTGAAGTCTATGCCACATCACATTCCTGGTGTAAACGCACGGAGTCACCTAGTGCAG,8230 fluorescence intensity (a.u.)
14,CCAATCACCGCCCTCCACGTGGCAAATCTCGCTTCGACTCCGGAGTCACCTAGTGCAG,15400 fluorescence intensity (a.u.)
15,CGAGCTACTCAAACACTTTCACAGGCAGTGGCAGTGGAACCGGAGTCACCTAGTGCAG,3710 fluorescence intensity (a.u.)
16,GTCAATGCTGAAGAATAAACAACAAATGCTTGGCCATAGCCGGAGTCACCTAGTGCAG,3680 fluorescence intensity (a.u.)
17,AATATTGCATTTGCACTCTTCCACGAGGGCAACTATTGTTCGGAGTCACCTAGTGCAG,4690 fluorescence intensity (a.u.)
18,CCTCTTGCTAAATACGCTTCGTACGCGTGGTCTTCGGTAGCGGAGTCACCTAGTGCAG,4050 fluorescence intensity (a.u.)
19,ACCATCTTTCTCTTTACCATGATCATTTTAGCATCTTTGACGGAGTCACCTAGTGCAG,3160 fluorescence intensity (a.u.)
20,ATCCATGAGCTGTTGCTGCAAATCCTCGCTATTCTTTCCGCGGAGTCACCTAGTGCAG,3340 fluorescence intensity (a.u.)
21,AGGCGTAGCTCAGTGCTTATGTCAGCAGGGTCTGAATAGGCGGAGTCACCTAGTGCAG,5390 fluorescence intensity (a.u.)

# Pulled one by one from the list above:
row,Sequence,binding signal
9,GCCACTGTGAGGCGCATAACATGGCTGCGCGCCTCGCTTGCGGAGTCACCTAGTGCAG,3720 fluorescence intensity (a.u.)
13,TTGACAACAGGAGATTCTGGTCAATTTTAACTATATTATACGGAGTCACCTAGTGCAG,25800 fluorescence intensity (a.u.)
12,TTGCGATGCTGCTACGGGATAGTGACGGCTGTTTACAATCCGGAGTCACCTAGTGCAG,29600 fluorescence intensity (a.u.)
